Data as given in paper PMC7363125.
Results are given in words; binding and its absence hold for the method and conditions named. Binding seen in cells or lysates may run through a third protein. Binding calls can cover weak binding; strength is not graded here. Where a sequence is shown, tags or fusion partners need not be part of it.

By UniProt entry, the sequences of proteins in these tests, tags left out. Where a name states a change or a piece, a line headed by the entry shows the natural chain unless it says otherwise.
UniProt Q5EBL8: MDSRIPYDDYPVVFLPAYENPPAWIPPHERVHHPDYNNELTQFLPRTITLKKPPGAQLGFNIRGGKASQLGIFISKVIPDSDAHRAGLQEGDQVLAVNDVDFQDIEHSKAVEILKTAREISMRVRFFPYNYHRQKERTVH

Columns and labels:
Assay in all cases: pull-down; GST-PDZD11 baits (full-length, truncated, 1-30, mutants; E. coli) on GSH-Sepharose beads, incubated 1 h at 4 °C with insect cell lysate holding full-length PLEKHA7-His; immunoblot with anti-His; only the target purified
[1] = target: GST-PDZD11 full-length E19A (human) (UniProt Q5EBL8)
[2] = target: GST-PDZD11 N-term 1-30 N20A (human) (UniProt Q5EBL8)
[3] = target: GST-PDZD11 N-term 1-30 E19A (human) (UniProt Q5EBL8)
[4] = target: GST-PDZD11 full-length N20A (human) (UniProt Q5EBL8)

binding [1]: binds
binding [2]: binds
binding [3]: binds
binding [4]: binds
B1: PLEKHA7-His, full-length (protein, UniProt Q6IQ23 1-1121)
chain: MAAATVGRDTLPEHWSYGVCRDGRVFFINDQLRCTTWLHPRTGEPVNSGHMIRSDLPRGWEEGFTEEGASYFIDHNQQTTAFRHPVTGQFSPENSEFILQEEPNPHMSKQDRNQRPSSMVSETSTAGTASTLEAKPGPKIIKSSSKVHSFGKRDQAIRRNPNVPVVVRGWLHKQDSSGMRLWKRRWFVLADYCLFYYKDSREEAVLGSIPLPSYVISPVAPEDRISRKYSFKAVHTGMRALIYNSSTAGSQAEQSGMRTYYFSADTQEDMNAWVRAMNQAAQVLSRSSLKRDMEKVERQAVPQANHTESCHECGRVGPGHTRDCPHRGHDDIVNFERQEQEGEQYRSQRDPLEGKRDRSKARSPYSPAEEDALFMDLPTGPRGQQAQPQRAEKNGMLPASYGPGEQNGTGGYQRAFPPRTNPEKHSQRKSNLAQVEHWARAQKGDSRSLPLDQTLPRQGPGQSLSFPENYQTLPKSTRHPSGGSSPPPRNLPSDYKYAQDRASHLKMSSEERRAHRDGTVWQLYEWQQRQQFRHGSPTAPICLGSPEFTDQGRSRSMLEVPRSISVPPSPSDIPPPGPPRVFPPRRPHTPAERVTVKPPDQRRSVDISLGDSPRRARGHAVKNSSHVDRRSMPSMGYMTHTVSAPSLHGKSADDTYLQLKKDLEYLDLKMTGRDLLKDRSLKPVKIAESDTDVKLSIFCEQDRVLQDLEDKIRALKENKDQLESVLEVLHRQMEQYRDQPQHLEKIAYQQKLLQEDLVHIRAELSRESTEMENAWNEYLKLENDVEQLKQTLQEQHRRAFFFQEKSQIQKDLWRIEDVTAGLSANKENFRILVESVKNPERKTVPLFPHPPVPSLSTSESKPPPQPSPPTSPVRTPLEVRLFPQLQTYVPYRPHPPQLRKVTSPLQSPTKAKPKVEDEAPPRPPLPELYSPEDQPPAVPPLPREATIIRHTSVRGLKRQSDERKRDRELGQCVNGDSRVELRSYVSEPELATLSGDMAQPSLGLVGPESRYQTLPGRGLSGSTSRLQQSSTIAPYVTLRRGLNAESSKATFPRPKSALERLYSGDHQRGKMSAEEQLERMKRHQKALVRERKRTLGQGERTGLPSSRYLSRPLPGDLGSVC
